Measurements from article PMC5823669, “Multi-chaperone function modulation and association with cytoskeletal proteins are key features of the function of AIP in the pituitary gland” (Oncotarget, 2018).

By UniProt entry, the sequences of proteins in these tests, tags left out. Residues count along the entry.
UniProt P15999, residues 44-553: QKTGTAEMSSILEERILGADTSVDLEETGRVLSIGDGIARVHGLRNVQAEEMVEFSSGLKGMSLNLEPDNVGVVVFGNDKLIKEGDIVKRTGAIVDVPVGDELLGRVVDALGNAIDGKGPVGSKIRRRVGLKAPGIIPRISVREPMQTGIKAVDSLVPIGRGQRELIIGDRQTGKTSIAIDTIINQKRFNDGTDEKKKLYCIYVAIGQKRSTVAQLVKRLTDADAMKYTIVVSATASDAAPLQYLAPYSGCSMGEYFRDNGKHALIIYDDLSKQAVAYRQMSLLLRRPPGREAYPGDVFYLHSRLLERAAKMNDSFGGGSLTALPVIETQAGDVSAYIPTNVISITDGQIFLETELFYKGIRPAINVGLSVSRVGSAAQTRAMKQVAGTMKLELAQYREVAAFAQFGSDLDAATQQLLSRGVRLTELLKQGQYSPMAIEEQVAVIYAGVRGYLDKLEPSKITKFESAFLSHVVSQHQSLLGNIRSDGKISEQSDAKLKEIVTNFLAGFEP
UniProt P63018: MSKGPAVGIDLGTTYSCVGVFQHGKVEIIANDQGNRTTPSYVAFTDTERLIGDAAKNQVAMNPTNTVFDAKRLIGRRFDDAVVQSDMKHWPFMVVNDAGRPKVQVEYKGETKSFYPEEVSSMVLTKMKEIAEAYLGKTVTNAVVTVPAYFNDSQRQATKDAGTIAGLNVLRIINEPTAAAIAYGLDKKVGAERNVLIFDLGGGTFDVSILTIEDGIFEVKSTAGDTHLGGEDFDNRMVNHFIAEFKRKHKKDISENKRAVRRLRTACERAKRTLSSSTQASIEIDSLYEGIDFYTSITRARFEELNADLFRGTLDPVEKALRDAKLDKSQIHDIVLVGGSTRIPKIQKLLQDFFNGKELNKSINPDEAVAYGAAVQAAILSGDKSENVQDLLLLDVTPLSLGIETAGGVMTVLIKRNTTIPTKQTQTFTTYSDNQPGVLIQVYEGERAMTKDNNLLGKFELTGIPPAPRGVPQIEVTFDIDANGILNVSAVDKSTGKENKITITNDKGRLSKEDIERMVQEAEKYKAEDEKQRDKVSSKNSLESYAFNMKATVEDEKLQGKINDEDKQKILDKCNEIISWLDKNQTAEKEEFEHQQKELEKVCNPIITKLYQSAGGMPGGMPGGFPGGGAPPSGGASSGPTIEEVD
UniProt Q9QX69: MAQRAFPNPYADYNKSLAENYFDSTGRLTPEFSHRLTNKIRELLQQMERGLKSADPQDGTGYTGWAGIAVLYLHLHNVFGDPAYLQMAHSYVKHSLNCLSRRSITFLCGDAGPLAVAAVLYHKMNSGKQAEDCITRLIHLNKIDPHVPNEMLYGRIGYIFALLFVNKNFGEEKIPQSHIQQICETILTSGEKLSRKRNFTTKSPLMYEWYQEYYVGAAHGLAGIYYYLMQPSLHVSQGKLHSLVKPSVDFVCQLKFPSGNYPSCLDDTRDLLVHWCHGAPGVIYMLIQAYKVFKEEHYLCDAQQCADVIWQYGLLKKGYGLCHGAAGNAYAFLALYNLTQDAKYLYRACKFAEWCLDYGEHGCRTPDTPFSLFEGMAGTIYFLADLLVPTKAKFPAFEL
UniProt Q6PEC4: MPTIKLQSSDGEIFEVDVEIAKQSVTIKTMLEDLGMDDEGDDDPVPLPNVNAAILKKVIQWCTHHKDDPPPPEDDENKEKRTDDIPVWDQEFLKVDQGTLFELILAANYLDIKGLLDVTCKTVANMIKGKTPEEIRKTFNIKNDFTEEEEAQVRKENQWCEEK
UniProt Q6P9T8: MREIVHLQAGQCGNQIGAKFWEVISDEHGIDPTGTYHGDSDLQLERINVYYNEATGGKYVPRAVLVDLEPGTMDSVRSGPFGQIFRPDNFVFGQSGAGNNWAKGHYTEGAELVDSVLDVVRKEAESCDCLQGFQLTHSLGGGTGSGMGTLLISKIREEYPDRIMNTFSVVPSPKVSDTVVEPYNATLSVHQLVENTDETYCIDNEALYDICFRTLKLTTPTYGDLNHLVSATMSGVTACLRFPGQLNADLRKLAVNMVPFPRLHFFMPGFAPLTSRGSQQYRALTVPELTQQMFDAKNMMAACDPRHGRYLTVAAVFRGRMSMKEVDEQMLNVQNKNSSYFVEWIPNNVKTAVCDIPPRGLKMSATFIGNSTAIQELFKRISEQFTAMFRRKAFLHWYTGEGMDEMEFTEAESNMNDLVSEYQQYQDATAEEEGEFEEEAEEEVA

T1: GST-tagged human wild-type AIP (aryl hydrocarbon receptor interacting protein) (human) (UniProt O00170)
T1 sequence: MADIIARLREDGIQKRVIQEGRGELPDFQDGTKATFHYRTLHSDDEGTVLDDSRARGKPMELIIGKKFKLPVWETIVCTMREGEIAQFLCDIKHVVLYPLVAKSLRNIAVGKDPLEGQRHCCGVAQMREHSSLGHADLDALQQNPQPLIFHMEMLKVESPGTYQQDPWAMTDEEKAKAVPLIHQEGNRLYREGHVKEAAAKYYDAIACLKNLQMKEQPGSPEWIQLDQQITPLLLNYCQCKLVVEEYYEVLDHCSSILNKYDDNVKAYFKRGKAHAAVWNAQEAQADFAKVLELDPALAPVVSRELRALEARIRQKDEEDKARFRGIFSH

B1: ATPD_RAT ATP synthase subunit delta, mitochondrial (Atp5d) (protein, UniProt P35434 23-168)
chain: AQAAASPAPAAGPGQMSFTFASPTQVFFDGANVRQVDVPTLTGAFGILASHVPTLQVLRPGLVMVHAEDGTTTKYFVSSGSVTVNADSSVQLLAEEVVTLDMLDLGAARANLEKAQSELSGAADEAARAEIQIRIEANEALVKALE
B2: CBR1_RAT Carbonyl reductase [NADPH] 1 (Cbr1) (protein, UniProt P47727 1-277)
chain: MSSDRPVALVTGANKGIGFAIVRDLCRKFLGDVVLTARDESRGHEAVKQLQTEGLSPRFHQLDIDNPQSIRALRDFLLQEYGGLNVLVNNAGIAFKVVDPTPFHIQAEVTMKTNFFGTQDVCKELLPIIKPQGRVVNVSSSVSLRALKSCSPELQQKFRSETITEEELVGLMNKFIEDAKKGVHAKEGWPNSAYGVTKIGVTVLSRIYARKLNEERREDKILLNACCPGWVRTDMAGPKATKSPEEGAETPVYLALLPPGAEGPHGQFVQDKKVEPW
B3: TBB2A_RAT Tubulin beta-2A chain (Tubb2a) (natural protein, R. norvegicus (endogenous in GH3), UniProt P85108 1-445, looked up)
chain: MREIVHIQAGQCGNQIGAKFWEVISDEHGIDPTGSYHGDSDLQLERINVYYNEAAGNKYVPRAILVDLEPGTMDSVRSGPFGQIFRPDNFVFGQSGAGNNWAKGHYTEGAELVDSVLDVVRKESESCDCLQGFQLTHSLGGGTGSGMGTLLISKIREEYPDRIMNTFSVMPSPKVSDTVVEPYNATLSVHQLVENTDETYSIDNEALYDICFRTLKLTTPTYGDLNHLVSATMSGVTTCLRFPGQLNADLRKLAVNMVPFPRLHFFMPGFAPLTSRGSQQYRALTVPELTQQMFDSKNMMAACDPRHGRYLTVAAIFRGRMSMKEVDEQMLNVQNKNSSYFVEWIPNNVKTAVCDIPPRGLKMSATFIGNSTAIQELFKRISEQFTAMFRRKAFLHWYTGEGMDEMEFTEAESNMNDLVSEYQQYQDATADEQGEFEEEEGEDEA
notes: Tubulin beta-2A chain, rat, UniProt P85108; source: endogenous, GH3 cell lysate
B4: ATP5I_RAT ATP synthase subunit e, mitochondrial (Atp5i) (protein, UniProt P29419 1-71)
chain: MVPPVQVSPLIKFGRYSALILGMAYGAKRYSYLKPRAEEERRIAAEEKKRLDELKRIERELAEAEDVSIFK
B5: VAPA_RAT Vesicle-associated membrane protein-associated protein A (Vapa) (protein, UniProt Q9Z270 1-249)
chain: MASASGAMAKHEQILVLDPPSDLKFKGPFTDVVTTNLKLQNPSDRKVCFKVKTTAPRRYCVRPNSGVIDPGSIVTVSVMLQPFDYDPNEKSKHKFMVQTIFAPPNISDMEAVWKEAKPDELMDSKLRCVFEMPNENDKLNDMEPSKAVPLNASKQDGPLPKPHSVSLNDTETRKLMEECKRLQGEMMKLSEENRHLRDEGLRLRKVAHSDKPGSTSAVSFRDNVTSPLPSLLVVIAAIFIGFFLGKFIL
B6: KTU_RAT Protein kintoun (Dnaaf2) (protein, UniProt Q5FVL7 1-817)
chain: MAKTAASSALEDLDLSGEEVQRLTSAFQDPEFRRMFSDYAAEITDPENRRRYEEEITALERERGVEVRFVHPEPGHVLRTSLDGEHRCFVNVCSNSLVGAPSSRPGPGRGGTAAGSHWSLPYSLAPGRQYAGRNGNRYTVYDVVFHPEALALARSHERFREMLDATALEAVEQQFGVRLDRRNAKTLKIKYKGTPEAAVLRTPLPEGVRAQPEGELPGLLPYPPYPYHYPAAAESTARSPASPAPKAVQRPEPTEPRCSVVQRHHVDLQDYRCSRDAAPSTVPHELVVTIELPLLRSAERAELEVKGKLLCLDSRNPDYRLRLSLPYPVDDGRGRAQYNKARRQLVVTLPVALAVARQDFSTTPEGPTAETGTDNIACTSAGDLAGAREESADSSGADHGRKSCVVAPDAGTAKAEGELVPEPEQDFGGDSVTPLGPGEGTTPENRSLLYSAFQSGDAESLAERSGVYGDLSVQTSEEQEGTCHDTSGSDMGGPGTESIKPLCPPLQCNQDEDSLTLLIQVPGIQPQSLHGDLSPFSYELCFSTQDSGYSFTLQFAPENKLSTKEPAISISLNNAVIVLAKSPESHGLWREWYWGLNKDSLEERLFIDEENVNEFLEEVVRSPLKPARSLSPPLIEVLQVTEEQIQIHAKLQECSDPDGLQGKEKGVKEECPLSEKENTEHSTTSTADSNSSVAVEGLKINTCGAVGLQQGCPDVPHVLSGKRLQSEAKMDPEFIRESSTAYSAEEKENIKEPVITKEKKIGGDHLSSLPNKTAVQNTHDFDTIKETNMQDGSVQIIKDHTTHCAFDFQNSLLYDLD
B7: NFL_RAT Neurofilament light polypeptide (Nefl) (protein, UniProt P19527 1-542)
chain: MSSFSYEPYFSTSYKRRYVETPRVHISSVRSGYSTARSAYSSYSAPVSSSLSVRRSYSSSSGSLMPSLENLDLSQVAAISNDLKSIRTQEKAQLQDLNDRFASFIERVHELEQQNKVLEAELLVLRQKHSEPSRFRALYEQEIRDLRLAAEDATNEKQALQGEREGLEETLRNLQARYEEEVLSREDAEGRLMEARKGADEAALARAELEKRIDSLMDEIAFLKKVHEEEIAELQAQIQYAQISVEMDVSSKPDLSAALKDIRAQYEKLAAKNMQNAEEWFKSRFTVLTESAAKNTDAVRAAKDEVSESRRLLKAKTLEIEACRGMNEALEKQLQELEDKQNADISAMQDTINKLENELRSTKSEMARYLKEYQDLLNVKMALDIEIAAYRKLLEGEETRLSFTSVGSITSGYSQSSQVFGRSAYSGLQSSSYLMSARAFPAYYTSHVQEEQSEVEETIEATKAEEAKDEPPSEGEAEEEEKEKEEGEEEEGAEEEEAAKDESEDAKEEEGGEGEEEDTKESEEEEKKEESAGEEQAAKKKD
B8: FBX3_RAT F-box only protein 3 (Fbxo3) (protein, UniProt D4ABP9 1-480)
chain: MAAVEAETGLLTLESLPTDPLLLILSFVDYRDLINCCYVSRRLSQLSTHDPLWRRHCKKYWLITEEEKARKNQCWKSLFIATYSDVGRYINHYAAIKKAWDDLKKYLEPRCPRMVLSLKEGAREEDLDAVEAQIGCKLPDDYRCSYRIHNGQKLVVPGLLGSMALSNHYRSEDLLDVDTAAGGFQQRQGLKYCLPLTFCIHTGLSQYIAVEAAEGRNKNEVFYQCPDQMARNPAAIDMFIIGATFTDWFTSYVNNVVSGGFPIIRDQIFRYIHDPECVATTGDITVSVSTSFLPELSSVHPPHYFFTYRIRIEMSRDALPEKACQLDSRYWRITNAKGDVEEVQGPGVVGEFPIISPGRIYEYTSCTTFSTTSGYMEGYYTFHFLYFKDKVFNVAIPRFHMACPTFRVSIARLEMGPDEYEEMEEEAEEEEEEENDDSADMDESDESDEDENESDEGEGEERRRRVFDVPIRRRRCSRLF
B9: TBB5_RAT Tubulin beta-5 chain (Tubb5) (natural protein, R. norvegicus (endogenous in GH3), UniProt P69897 1-444, looked up)
chain: MREIVHIQAGQCGNQIGAKFWEVISDEHGIDPTGTYHGDSDLQLDRISVYYNEATGGKYVPRAILVDLEPGTMDSVRSGPFGQIFRPDNFVFGQSGAGNNWAKGHYTEGAELVDSVLDVVRKEAESCDCLQGFQLTHSLGGGTGSGMGTLLISKIREEYPDRIMNTFSVVPSPKVSDTVVEPYNATLSVHQLVENTDETYCIDNEALYDICFRTLKLTTPTYGDLNHLVSATMSGVTTCLRFPGQLNADLRKLAVNMVPFPRLHFFMPGFAPLTSRGSQQYRALTVPELTQQVFDAKNMMAACDPRHGRYLTVAAVFRGRMSMKEVDEQMLNVQNKNSSYFVEWIPNNVKTAVCDIPPRGLKMAVTFIGNSTAIQELFKRISEQFTAMFRRKAFLHWYTGEGMDEMEFTEAESNMNDLVSEYQQYQDATAEEEEDFGEEAEEEA
notes: Tubulin beta-5 chain, rat, UniProt P69897; also called tubulin beta chain; source: endogenous, GH3 cell lysate
B10: CRIP1_RAT Cysteine-rich protein 1 (Crip1) (protein, UniProt P63255 1-77)
chain: MPKCPKCDKEVYFAERVTSLGKDWHRPCLKCEKCGKTLTSGGHAEHEGKPYCNHPCYSAMFGPKGFGRGGAESHTFK
B11: FUBP2_RAT Far upstream element-binding protein 2 (Khsrp) (protein, UniProt Q99PF5 1-721)
chain: MSDYSTGGPPPGPPPPAGGGGGAAGAGGGPPPGPPGAGDRGGGGPGGGGPGGGGASGGPSQPPGGGGPGIRKDAFADAVQRARQIAAKIGGDAATTVNNNTPDFGFGGQKRQLEDGDQPDSKKLASQGDSIGSQLGPIHPPPRTSMTEEYRVPDGMVGLIIGRGGEQINKIQQDSGCKVQISPDSGGLPERSVSLTGAPESVQKAKMMLDDIVSRGRGGPPGQFHDNANGGQNGTVQEIMIPAGKAGLVIGKGGETIKQLQERAGVKMILIQDGSQNTNVDKPLRIIGDPYKVQQACEMVMDILRERDQGGFGDRNEYGSRVGGGIDVPVPRHSVGVVIGRSGEMIKKIQNDAGVRIQFKQDDGTGPEKIAHIMGPPDRCEHAARIINDLLQSLRSGPPGPPGAPGMPPGGRGRGRGQGNWGPPGGEMTFSIPTHKCGLVIGRGGENVKAINQQTGAFVEISRQLPPNGDPNFKLFVIRGSPQQIDHAKQLIEEKIEGPLCPVGPGPGGPGPAGPMGPFHPGPFNQGPPGAPPHAGGPPPHQYPPQGWGNTYPEWQPPAPHDPNKAAAAATDPNAAWAAYYSHYYQQPPGPVPGPAPAPAAPPAQGEPPQPPPTGQSDYTKAWEEYYKKIGQQPQQPGAPPQQDYTKAWEEYYKKQAQVATGGGPGAPPGSQPDYSAAWAEYYRQQAAYYGQTPGPGGPQPPSTQQGQQQATEANGYELHL

These molecules were tested against T1, GST-tagged human wild-type AIP (aryl hydrocarbon receptor interacting protein) (human) (assay: affinity purification with mass spectrometry; GST pull-down: 10 ug of purified GST-AIP bait (WT or variant) against 2 mg total protein of GH3 cell lysate; eluates of four experiments pooled; TMTsixplex labelling, Orbitrap MS; peptide intensities minus the GST control, variants given as fold of the WT experiment (WT = 1); only the target purified).

binding | Molecule
binds | ATPA_RAT ATP synthase subunit alpha, mitochondrial (Atp5a1) (from UniProt P15999 44-553)
binds | CO4_RAT Complement C4 (C4) (R. norvegicus (endogenous in GH3))
binds | HSP7C_RAT Heat shock cognate 71 kDa protein (Hspa8) (from UniProt P63018 1-646)
binds | LANC1_RAT LanC-like protein 1 (Lancl1) (from UniProt Q9QX69 1-399)
binds | SKP1_RAT S-phase kinase-associated protein 1 (Skp1) (from UniProt Q6PEC4 1-163)
binds | TBB4B_RAT Tubulin beta-4B chain (Tubb4b) (from UniProt Q6P9T8 1-445)
binds | B1
no binding | B2
binds | B3
binds | B4
binds | B5
binds | B6
binds | B7
binds | B8
binds | B9
binds | B10
binds | B11

No constants are given. Whether binding was seen depends on the method and setting. In cells and extracts the contact can be indirect. These calls come from enrichment with a bait or labelling near it, and not all partners need be listed. A no says only that the protein was not detected with the bait. Sequences can lack the tags named with a protein.
